Laboratory results published in US9289471B2, “Product and process for liquefaction of mucus or sputum” (National Jewish Health, priority 2002, dated 2016).
Some results were stated once for a whole list of compounds, not compound by compound.

Assay: Compaction assay: percent liquid fraction of CF sputum
Set-up: species or system human
Settings: donor A, 20 min (FIG. 2)
Procedure: CF sputum stored at −80° C. was thawed at room temperature and aliquoted into 1.5 ml Eppendorf centrifuge tubes at volumes of 275 μl using a positive displacement pipette (Rainin, Emeryville, Calif.). Sputum samples were subjected to either diluent (H2O), Trx+TR+NADPH, GSH+glutathione reductase+NADPH, dithiothreitol (DTT) or N-acetylcysteine treatment by the addition of 25 μl of H2O containing the appropriate molar concentration of each agent. After brief vortexing (˜1 second), sample tubes were loaded onto a microtube rotisserie (Barnstead, Dubuque, Iowa) and incubated at 37° C. for 20 minutes. […] The percent liquid fraction of each capillary tube was calculated by dividing aqueous phase length by total length (gel+aqueous)×100. […]
Due to abnormal ion transport caused by defects in the CFTR gene, airway secretions in CF patients are often desiccated. […] After 20 minute incubation, the liquid fraction of each sample was determined by compaction assay. […]
The effectiveness of Trx in liquefying sputum was compared with other monothiol and dithiol reducing agents. Sputum samples were aliquoted and treated with Trx or GSH for 20 minutes and percent liquid determined by compaction assay. […] The analysis of Trx and NAC efficacy also was determined after 20 minute incubation, but on a different set of sputum samples.

In the case of O[C@H](CS)[C@H](O)CS (racemic) [DTT, dithiothreitol], the “liquid fraction of total sample volume” value (1 mM DTT) is reported as “greater than 90%” and the “liquid fraction of total sample volume” value (5 mM DTT) is reported as “greater than 90%”.
